Measurements reported in PubChem BioAssay AID1224830 (NIAID, 2016).

- Assay: 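Regulators of TLR4 signalling towards TNF-alpha in macrophage-like cells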 (primary screen)
- Cell system: human THP-1 monocytic leukaemia cells, TNF dual-luciferase reporter clone, PMA-differentiated to macrophage-like cells
- Reagent: siRNA pool against human genes, 50 nM
- Time to read-out: LPS for 4 h, given about 3 days after siRNA transfection
- Challenge: bacterial LPS (TLR4 ligand), 10 ng/ml
- Read-out: 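TNF firefly reporter luminescence divided by renilla, normalised to the plate median, then turned into a robust z-score for each replicate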
- Scale: TNF reporter robust z-score: higher = stronger TNF reporter response to LPS
- Hit rule: 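Each well counts as active if its z-score is over 2.8 or under -1.5; controls are left without a call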
Shown is an unselected part of about 18,000 reagents. About 2,900 of all reagents (16%) were called active. 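Calls are made per well; low scores hint the gene aids the LPS response, high scores that it dampens it.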 Unmarked entries are inactive. Repeated entries: four replicate wells of each siRNA pool.

target | TNF reporter robust z-score
RTF1 | 2.46
RTF1 | 1.5
RTF1 | 0.89
RTF1 | 0.68
USE1 | 0.58
USE1 | 0.59
USE1 | 1
USE1 | 1.36
DENND2C | -0.64
DENND2C | -0.14
DENND2C | -0.38
DENND2C | -0.37
TMEM178A | -0.26
TMEM178A | -0.32
TMEM178A | -0.35
TMEM178A | -0.17
CAMP | -1.13
CAMP | -0.4
CAMP | -0.2
CAMP | -0.23
TNFRSF13B | -0.58
TNFRSF13B | 0.58
TNFRSF13B | 1.07
TNFRSF13B | -0.11
P2RY14 | -0.96
P2RY14 | -0.54
P2RY14 | -1.03
P2RY14 | -0.77
AKAP19 | 0.92
AKAP19 | 0.31
AKAP19 | 0.59
AKAP19 | 0.49
CSN3 | -0.6
CSN3 | -0.08
CSN3 | -0.38
CSN3 | 0.1
GABRR2 | 0.31
GABRR2 | 0.8
GABRR2 | -0.74
GABRR2 | -0.32
GALK2 | 0.69
GALK2 | 1.5
GALK2 | 2.64
GALK2 | 2.18
UBE2B | -0.2
UBE2B | 0.73
UBE2B | 2.26
UBE2B | 0.18
KLF13 | -0.9
KLF13 | -0.56
KLF13 | -0.02
KLF13 | 0.27
DOCK10 | -1.36
DOCK10 | -1.01
DOCK10 | -0.1
DOCK10 | -0.83
SUSD6 | -0.92
SUSD6 | 0.31
SUSD6 | -0.53
SUSD6 | 0.03
C3 | 1.57
C3 | 2.55
C3 | 1.76
C3 | 1.15
TBCE | 0.21
TBCE | -0.29
TBCE | 0.07
TBCE | 1.63
LMO1 | -0.4
LMO1 | -0.47
LMO1 | -0.22
LMO1 | 0.93
CDKN3 | -0.88
CDKN3 | 0.38
CDKN3 | 0.24
CDKN3 | -0.76
RPP38-DT | 2.29
RPP38-DT | 1.96
RPP38-DT | 0.91
RPP38-DT | 2.12
KRTAP9-2 | -1.43
KRTAP9-2 | 0.24
KRTAP9-2 | 0.54
KRTAP9-2 | 0.61
ZNF480 | -0.17
ZNF480 | -0.31
ZNF480 | -0.2
ZNF480 | 0.44
IFNAR2 | 0.48
IFNAR2 | 0.25
IFNAR2 | 0.83
IFNAR2 | 1.48
IFT56 | 0.31
IFT56 | -0.27
IFT56 | 0.78
IFT56 | -0.8
MUCL3 | 0.87
MUCL3 | 1.02
MUCL3 | 1.04
MUCL3 | 2.88 (active)
ANO6 | -0.49
ANO6 | 0.6
ANO6 | -0.18
ANO6 | -0.21
IGFL2 | 2.48
IGFL2 | 1.36
IGFL2 | 1.78
IGFL2 | 1.73
FAM86C1P | 0.99
FAM86C1P | 0.7
FAM86C1P | 0.25
FAM86C1P | 0.56
KLK6 | 1.2
KLK6 | 6.6 (active)
KLK6 | 2.07
KLK6 | 5.34 (active)
MPPED2 | -0.98
MPPED2 | 0.13
MPPED2 | -0.64
MPPED2 | -0.88
KCNA5 | -1.08
KCNA5 | 1.82
KCNA5 | 0.16
KCNA5 | -0.52
AGBL5 | 0.99
AGBL5 | 0.37
AGBL5 | -1.03
AGBL5 | 0.28
HDGFL1 | 1.66
HDGFL1 | 2.33
HDGFL1 | -0.33
HDGFL1 | 1.29
ENO2 | -0.25
ENO2 | 0.61
ENO2 | -0.01
ENO2 | 1.18
CHMP6 | -0.73
CHMP6 | -0.05
CHMP6 | -0.93
CHMP6 | 0.24

Quoted from the listing, 8 entries:
target | TNF reporter robust z-score
USE1 | 0.59
USE1 | 1
USE1 | 1.36
DENND2C | -0.64
DENND2C | -0.14
DENND2C | -0.38
DENND2C | -0.37
TMEM178A | -0.26
